Molecular target: Histone deacetylase 3 (Homo sapiens, UniProt O15379)
Assay: Inhibition of C-terminal His-tagged full length human recombinant HDAC3 co-expressed with NcoR2 in baculovirus expression system using fluorogenic acetylated peptide as substrate preincubated with enzyme for 10 mins prior to substrate addition measured after 60 mins by fluorescence analysis

Sequences of proteins named here, by UniProt entry; tags and fusion partners are left off. A change or cut given only in a name is not applied to a line headed by its entry.
UniProt O15379: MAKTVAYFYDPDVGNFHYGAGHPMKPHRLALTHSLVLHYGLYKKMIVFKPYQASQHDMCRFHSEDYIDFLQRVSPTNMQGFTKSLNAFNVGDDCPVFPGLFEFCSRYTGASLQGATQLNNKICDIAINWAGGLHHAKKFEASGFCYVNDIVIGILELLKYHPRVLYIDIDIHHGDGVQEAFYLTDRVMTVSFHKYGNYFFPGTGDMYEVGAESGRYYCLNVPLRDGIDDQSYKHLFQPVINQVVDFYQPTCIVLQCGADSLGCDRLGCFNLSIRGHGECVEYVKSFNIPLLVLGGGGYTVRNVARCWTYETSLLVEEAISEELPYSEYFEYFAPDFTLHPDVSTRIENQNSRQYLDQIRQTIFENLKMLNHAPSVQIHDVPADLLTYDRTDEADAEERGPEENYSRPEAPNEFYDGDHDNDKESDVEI

For CCCCCCCC(=O)SCC/C=C/[C@@H]1CC(=O)NCc2nc(cs2)C2=N[C@@](C)(CS2)C(=O)N[C@@H](C(C)C)C(=O)O1 [LARGAZOLE], the IC50 was 604 nM.

Reference: ChEMBL document CHEMBL2321647, “Biological evaluation of new largazole analogues: alteration of macrocyclic scaffold with click chemistry” (ACS Med Chem Lett, 2013)
